Drawing on article PMC8635974, this text covers binding for one substance.

Amino acid sequences for entries named in this document (tags omitted). A change or cut given only in a name is not applied to a line headed by its entry.
UniProt P25098: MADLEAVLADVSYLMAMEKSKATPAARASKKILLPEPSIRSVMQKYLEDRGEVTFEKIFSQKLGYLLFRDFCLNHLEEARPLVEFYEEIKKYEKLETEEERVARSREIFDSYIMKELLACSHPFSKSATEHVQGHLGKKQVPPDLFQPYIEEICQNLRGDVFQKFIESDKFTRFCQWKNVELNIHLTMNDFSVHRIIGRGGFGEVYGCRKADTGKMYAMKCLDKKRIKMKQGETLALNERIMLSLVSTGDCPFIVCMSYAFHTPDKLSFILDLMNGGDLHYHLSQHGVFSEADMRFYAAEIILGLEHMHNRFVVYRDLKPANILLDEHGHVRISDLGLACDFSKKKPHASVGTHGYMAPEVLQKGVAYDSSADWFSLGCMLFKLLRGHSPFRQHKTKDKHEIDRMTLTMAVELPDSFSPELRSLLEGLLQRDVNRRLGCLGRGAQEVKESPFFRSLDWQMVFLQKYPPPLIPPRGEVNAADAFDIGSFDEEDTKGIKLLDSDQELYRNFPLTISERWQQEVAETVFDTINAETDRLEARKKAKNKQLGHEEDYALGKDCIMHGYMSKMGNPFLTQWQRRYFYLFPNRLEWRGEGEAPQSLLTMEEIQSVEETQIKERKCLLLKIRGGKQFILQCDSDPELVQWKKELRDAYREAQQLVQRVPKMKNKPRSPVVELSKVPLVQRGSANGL

These are yes or no findings as the source states them, for the method shown. Binding seen in cells or lysates may run through a third protein. Binding can be weak; no strength is given.

Test [1] addresses M3R-mTurquoise (muscarinic acetylcholine receptor M3 with mTurquoise fused at the C-terminus) (UniProt P20309). In words: FRET or BRET; single-cell FRET in HEK293T cells transfected with M3R-mTurquoise, pcDNA3, Gβ1, Gγ2 and GRK2-YFP (without Gαq overexpression); agonists ACh, Pilo, Are. (BRET reads energy transfer from a luciferase to a nearby fluorophore.)
For test [2] the target is unchanged. The test is described as follows: FRET or BRET; single-cell FRET between M3R-mTurq and GRK2-YFP (colour switch of the fluorophores) compared with M3R-YFP and GRK2-mTurq; amplitudes normalized to 30 µM ACh; co-transfected proteins not told for this panel.

For the substance “GRK2-YFP (G protein-coupled receptor kinase 2 with YFP fused to the C-terminus) (from UniProt P25098) (enzyme)”, the binding entry in test [1] and in test [2] was “binds” in each case.
